For at least one entry, the source does not settle the construct or the ends of the probe. For some of these results: A negative result means that nothing was seen under these conditions. At least one verdict rests on a figure or table, not on a statement of the authors. Where a protein sequence is shown, tags need not be part of it.
Key:
RtcR full length = biological target: T1, RtcR full length (UniProt P38035); assay: EMSA; conditions: 8 mM Mg2+, 50 mM Na-glutamate, 50 mM NaCl, 20 mM Tris-Cl pH 8, 8 mM MgCl2, 0.1 mM DTT, 5% glycerol, room temperature, RNA 50 nM, 4% native PAGE, recombinant protein, protein details: N-terminal MBP (pMALc2, 103 kDa fusion monomer), label: 5'-Cy3
T1 sequence (looked up, limits assumed): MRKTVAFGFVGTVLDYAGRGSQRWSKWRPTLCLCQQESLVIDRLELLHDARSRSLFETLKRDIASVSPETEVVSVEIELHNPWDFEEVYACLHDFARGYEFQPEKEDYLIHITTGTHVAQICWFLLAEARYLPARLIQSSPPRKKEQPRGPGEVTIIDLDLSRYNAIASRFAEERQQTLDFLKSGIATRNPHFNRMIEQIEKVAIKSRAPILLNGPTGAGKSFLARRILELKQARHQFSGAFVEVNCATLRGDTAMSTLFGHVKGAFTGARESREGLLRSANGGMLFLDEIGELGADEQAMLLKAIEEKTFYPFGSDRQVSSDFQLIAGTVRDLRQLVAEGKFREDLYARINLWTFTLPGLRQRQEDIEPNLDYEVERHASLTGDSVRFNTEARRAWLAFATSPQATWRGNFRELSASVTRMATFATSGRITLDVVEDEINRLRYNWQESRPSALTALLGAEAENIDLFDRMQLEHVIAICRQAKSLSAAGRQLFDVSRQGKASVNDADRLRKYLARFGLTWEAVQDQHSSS

RtcR CARF domain = biological target: T2, RtcR CARF domain (UniProt P38035); assay: EMSA; conditions: 8 mM Mg2+, 50 mM Na-glutamate, 50 mM NaCl, 20 mM Tris-Cl pH 8, 8 mM MgCl2, 0.1 mM DTT, 5% glycerol, room temperature, RNA 50 nM, 4% native PAGE, recombinant protein, label: 5'-Cy3
T2 sequence (looked up, limits assumed): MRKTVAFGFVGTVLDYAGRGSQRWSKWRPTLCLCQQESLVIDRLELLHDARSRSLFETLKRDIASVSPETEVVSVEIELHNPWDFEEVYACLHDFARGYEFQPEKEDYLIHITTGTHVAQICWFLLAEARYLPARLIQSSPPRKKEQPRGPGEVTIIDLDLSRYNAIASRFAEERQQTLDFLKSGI

Sequence | binding result (RtcR full length; 3'-phosphate) | binding result (RtcR CARF domain; 3'-phosphate) | binding result (RtcR full length; 3'-OH) | binding result (RtcR CARF domain; 3'-OH)
ACUCCGAUAUCACGCUU [tRNAGlu[UUC] 17-mer (half anticodon stem-loop)] | no binding | binds | – | –
ACUCCGAUAUCACGCUUUCACCGUGAUAUCGGAGU [tRNAGlu[UUC] 35-mer (whole anticodon stem-loop)] | – | – | no binding | binds
